# Laboratory results: PubChem BioAssay AID256 (DTP/NCI, 2004)
# The list is a part of this screen's results and no random one: it gathers tests that were run many times, whatever their T/C, doses with no T/C, and many T/C values between a quarter and a half above the control. Further doses and runs are listed elsewhere. T/C: endpoint of the treated group in % of that of the vehicle group. Some doses have a count of surviving animals in place of a T/C: the source files T/C as zero there, which appears to mark a toxic dose or a test without result, not a measured value. Some survivor counts are full or nearly so, which does not show that the dose was tolerated: survival well below the control is almost never listed, so the zero probably covers shortened survival too. Counts of survivors are from the toxicity check (mostly the fifth day) where no day follows; animals may have died later. Schedules are NCI's codes, read here as Q, the interval in days (D) or hours (H), X, the number of doses. Some schedule codes hold Z or #, which are not explained here. Where survival is the endpoint, the PubChem record calls one and a half times the control and up active, and a quarter to a half above the control has no call in these data; cut-offs in other NCI protocols can differ. Some T/C values are followed by the survivors on the day toxicity was checked, most often the fifth; without a count, all were alive then.
# Test system: CD2F1 mice, L1210 leukemia ip, survival T/C
# Test: NCI In Vivo Anticancer Drug Screen. Data for tumor model L1210 Leukemia (intraperitoneal) in CD2F1 (CDF1) mice
# Conditions: higher T/C = longer survival
# Procedure, shortened: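 Transplantable tumor in mice; compound-treated vs vehicle-treated groups. Read-out = treated/control ratio of the measured endpoint.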
# [1] = T/C endpoint: mean survival time, dose: 100.0 mg/kg/injection, schedule: Q04DX003 (ip), vehicle: saline with Tween-80
# [2] = T/C endpoint: mean survival time, dose: 200.0 mg/kg/injection, schedule: Q01DX009 (ip), vehicle: saline with Tween-80
# [3] = T/C endpoint: mean survival time, dose: 100.0 mg/kg/injection, schedule: Q04DX003 (ip), vehicle: Klucel (hydroxypropylcellulose) (HPC)
# [4] = T/C endpoint: mean survival time, dose: 200.0 mg/kg/injection, schedule: Q04DX003 (ip), vehicle: saline with Tween-80
# [5] = T/C endpoint: mean survival time, dose: 400.0 mg/kg/injection, schedule: Q04DX003 (ip), vehicle: saline with Tween-80
# [6] = T/C endpoint: mean survival time, dose: 400.0 mg/kg/injection, schedule: Q01DX001 (ip), vehicle: saline with Tween-80
# [7] = T/C endpoint: mean survival time, dose: 100.0 mg/kg/injection, schedule: Q01DX001 (ip), vehicle: saline
# [8] = T/C endpoint: mean survival time, dose: 200.0 mg/kg/injection, schedule: Q01DX001 (ip), vehicle: saline
# [9] = T/C endpoint: mean survival time, dose: 400.0 mg/kg/injection, schedule: Q01DX001 (ip), vehicle: saline
# [10] = T/C endpoint: mean survival time, dose: 25.0 mg/kg/injection, schedule: Q04DX003 (ip), vehicle: Klucel (hydroxypropylcellulose) (HPC)
# [11] = T/C endpoint: mean survival time, dose: 50.0 mg/kg/injection, schedule: Q04DX003 (ip), vehicle: Klucel (hydroxypropylcellulose) (HPC)
# [12] = T/C endpoint: median survival time, dose: 400.0 mg/kg/injection, schedule: Q01DX005 (ip), vehicle: saline with Tween-80
# [13] = T/C endpoint: mean survival time, dose: 50.0 mg/kg/injection, schedule: Q01DX009 (ip), vehicle: Klucel (hydroxypropylcellulose) (HPC)
# [14] = T/C endpoint: mean survival time, dose: 100.0 mg/kg/injection, schedule: Q01DX009 (ip), vehicle: Klucel (hydroxypropylcellulose) (HPC)
# [15] = T/C endpoint: mean survival time, dose: 200.0 mg/kg/injection, schedule: Q01DX009 (ip), vehicle: Klucel (hydroxypropylcellulose) (HPC)
compound,measurement,setting,value
Cc1ccc(CNC2=C(Cl)C(=O)c3ccccc3C2=O)cc1,survivor count,"T/C endpoint: mean survival time, dose: 50.0 mg/kg/injection, schedule: Q04DX003 (ip), vehicle: saline with Tween-80",0 of 6
same,survivor count,[1],0 of 6
O=C(O)CC1OCC=C2C[N+]3([O-])CCC45c6ccccc6NC4C1C2CC53 (stereo not given),survivor count,"T/C endpoint: mean survival time, dose: 300.0 mg/kg/injection, schedule: Q01DX001 (ip), vehicle: other",0 of 6
C1O[C@@H]1[C@H]1CO1,survivor count,"T/C endpoint: mean survival time, dose: 75.0 mg/kg/injection, schedule: Q01DX001 (ip), vehicle: saline",0 of 6
same,survivor count,"T/C endpoint: mean survival time, dose: 150.0 mg/kg/injection, schedule: Q01DX001 (ip), vehicle: saline",0 of 6
same,survivor count,"T/C endpoint: mean survival time, dose: 300.0 mg/kg/injection, schedule: Q01DX001 (ip), vehicle: saline",0 of 6
CCOC(=O)C(C(=O)OCC)c1cc(NC(=O)c2ccccc2)ccc1NC(=O)c1ccccc1,survivor count,[2],6 of 6
O=C1C(Cl)=C(Cl)C(=O)c2ccccc21,survivor count,[3],0 of 6
same,survivor count,"T/C endpoint: mean survival time, dose: 200.0 mg/kg/injection, schedule: Q04DX003 (ip), vehicle: Klucel (hydroxypropylcellulose) (HPC)",0 of 6
same,survivor count,"T/C endpoint: mean survival time, dose: 400.0 mg/kg/injection, schedule: Q04DX003 (ip), vehicle: Klucel (hydroxypropylcellulose) (HPC)",0 of 6
Cc1cc(C)n(C(=S)[S-])n1.Cc1cc(C)n(C(=S)[S-])n1.[Pt+2],survivor count,[4],6 of 6
same,survivor count,[5],6 of 6
Cc1ccc(S(=O)(=O)OC(C#N)c2ccccc2)cc1 (stereo not given),survivor count,[2],0 of 6
same,survivor count,[6],0 of 6
OC(CF)CF,survivor count,"T/C endpoint: mean survival time, dose: 50.0 mg/kg/injection, schedule: Q01DX009 (ip), vehicle: saline",3 of 6
same,survivor count,"T/C endpoint: mean survival time, dose: 100.0 mg/kg/injection, schedule: Q01DX009 (ip), vehicle: saline",0 of 6
C1CCC(C2CCCC[N-]2)[N-]C1.C1CCC(C2CCCC[N-]2)[N-]C1.C1CCC(C2CCCC[N-]2)[N-]C1.[Fe+6] (stereo not given),survivor count,[7],0 of 6
same,survivor count,[8],0 of 6
same,survivor count,[9],0 of 6
CC1(C)CC(=O)C(C)(C)C(=O)C1,survivor count,[8],1 of 6
same,survivor count,[9],0 of 6
COc1ccc2c(c1)c1c(C)c3cnccc3c(C)c1n2CCO,T/C,[5],131 % of control [5 of 6 alive]
CN=C(N)N/N=C(\C)c1ccc2oc3ccc(/C(C)=N/NC(N)=NC)cc3c2c1,T/C,"T/C endpoint: median survival time, dose: 18.8 mg/kg/injection, schedule: Q01DX009 (ip), vehicle: saline with Tween-80",125 % of control
same,T/C,"T/C endpoint: median survival time, dose: 25.0 mg/kg/injection, schedule: Q01DX009 (ip), vehicle: saline with Tween-80",134 % of control
same,T/C,"T/C endpoint: median survival time, dose: 37.5 mg/kg/injection, schedule: Q01DX009 (ip), vehicle: saline with Tween-80",127 % of control
same,survivor count,"T/C endpoint: median survival time, dose: 100.0 mg/kg/injection, schedule: Q01DX009 (ip), vehicle: saline with Tween-80",1 of 6
same,survivor count,"T/C endpoint: median survival time, dose: 150.0 mg/kg/injection, schedule: Q01DX009 (ip), vehicle: saline with Tween-80",0 of 6
Nc1nc(=S)c2ncn(C3C=CC(O)C(CO)O3)c2[nH]1 (stereo not given),T/C,"T/C endpoint: mean survival time, dose: 178.0 mg/kg/injection, schedule: Q01DX001 (ip), vehicle: saline",129 % of control
same,T/C,"T/C endpoint: mean survival time, dose: 267.0 mg/kg/injection, schedule: Q01DX001 (ip), vehicle: saline",138 % of control
same,T/C,[9],129 % of control
same,T/C,"T/C endpoint: mean survival time, dose: 600.0 mg/kg/injection, schedule: Q01DX001 (ip), vehicle: saline",127 % of control
Cc1ccccc1[P+](Cc1ccccc1)(c1ccccc1)c1ccccc1,survivor count,[7],0 of 6
same,survivor count,[8],0 of 6
same,survivor count,[9],0 of 6
CC(=O)Oc1ccc(N2C(=O)C=CC2=O)cc1,survivor count,[10],0 of 6
same,survivor count,[11],0 of 6
Nc1ccc(O)c2ccccc12,survivor count,"T/C endpoint: mean survival time, dose: 6.0 mg/kg/injection, schedule: Q04DX003 (ip), vehicle: other",1 of 6
CCCCCCCCCCCCCC[n+]1ccccc1,survivor count,"T/C endpoint: mean survival time, dose: 0.5 mg/kg/injection, schedule: Q04DX003 (ip), vehicle: saline sonified",2 of 6
same,survivor count,"T/C endpoint: mean survival time, dose: 1.0 mg/kg/injection, schedule: Q04DX003 (ip), vehicle: saline sonified",1 of 6
same,survivor count,"T/C endpoint: mean survival time, dose: 5.0 mg/kg/injection, schedule: Q04DX003 (ip), vehicle: saline with Tween-80",0 of 6
same,survivor count,"T/C endpoint: mean survival time, dose: 10.0 mg/kg/injection, schedule: Q04DX003 (ip), vehicle: saline with Tween-80",1 of 6
same,survivor count,"T/C endpoint: mean survival time, dose: 20.0 mg/kg/injection, schedule: Q04DX003 (ip), vehicle: saline with Tween-80",1 of 6
same,survivor count,[1],0 of 6
same,survivor count,[4],0 of 6
same,survivor count,[5],0 of 6
NC(=O)c1[nH]cnc1O,survivor count,"T/C endpoint: median survival time, dose: 240.0 mg/kg/injection, schedule: Q01DX005 (ip), vehicle: saline with Tween-80",3 of 6
same,T/C,[12],126 % of control
same,survivor count,[12],1 of 6
same,survivor count,"T/C endpoint: median survival time, dose: 667.0 mg/kg/injection, schedule: Q01DX005 (ip), vehicle: saline with Tween-80",0 of 6
same,survivor count,"T/C endpoint: median survival time, dose: 1111.0 mg/kg/injection, schedule: Q01DX005 (ip), vehicle: saline with Tween-80",0 of 6
CC(=O)Nc1sc([N+](=O)[O-])cc1[N+](=O)[O-],survivor count,[4],1 of 3
same,survivor count,[5],1 of 3
NC(=S)N/N=C1/CCN2CCCc3cccc1c32,survivor count,"T/C endpoint: mean survival time, dose: 75.0 mg/kg/injection, schedule: Q01DX001 (ip), vehicle: saline with Tween-80",0 of 6
same,survivor count,"T/C endpoint: mean survival time, dose: 150.0 mg/kg/injection, schedule: Q01DX001 (ip), vehicle: saline with Tween-80",0 of 6
same,survivor count,"T/C endpoint: mean survival time, dose: 300.0 mg/kg/injection, schedule: Q01DX001 (ip), vehicle: saline with Tween-80",0 of 6
CSc1ccc(OC(=O)Nc2ccc(C)cc2C)cc1C,survivor count,"T/C endpoint: mean survival time, dose: 100.0 mg/kg/injection, schedule: Q01DX009 (ip), vehicle: saline with Tween-80",3 of 3
Nc1nc(=S)c2[nH]c(N=Nc3ccc(S(=O)(=O)O)cc3)nc2[nH]1,T/C,[10],138 % of control
same,T/C,[11],140 % of control
same,survivor count,[3],1 of 6
Nc1ccc(/C=C/c2ccnc3ccccc23)cc1,survivor count,"T/C endpoint: mean survival time, dose: 32.0 mg/kg/injection, schedule: Q01DX Z (ip), vehicle: saline",6 of 6
CN1CC(C(=O)NC(C)(C)C)CC(c2ccccc2)C1 (stereo not given),survivor count,"T/C endpoint: mean survival time, dose: 100.0 mg/kg/injection, schedule: Q01DX001 (ip), vehicle: saline with Tween-80",1 of 6
same,survivor count,"T/C endpoint: mean survival time, dose: 200.0 mg/kg/injection, schedule: Q01DX001 (ip), vehicle: saline with Tween-80",0 of 6
same,survivor count,[6],0 of 6
COC(=O)C1=[N+]([O-])[N+]([O-])=C(C(=O)OC)C1=O,survivor count,[13],2 of 3
same,survivor count,[14],0 of 3
same,survivor count,[15],0 of 3
CC(C)(C)c1ccc(-n2cnc3c(=O)[nH]c(N)nc32)cc1,survivor count,"T/C endpoint: mean survival time, dose: 200.0 mg/kg/injection, schedule: Q04DX002 (ip), vehicle: saline with Tween-80",3 of 3
CC1(C)N=C(N)N=C(N)N1c1cccc(CCCc2ccccc2)c1,survivor count,"T/C endpoint: mean survival time, dose: 12.5 mg/kg/injection, schedule: Q01DX001 (ip), vehicle: saline",3 of 3
same,survivor count,"T/C endpoint: mean survival time, dose: 25.0 mg/kg/injection, schedule: Q01DX001 (ip), vehicle: saline",1 of 3
CCOC(=O)CC(COC)C(Br)(C(=O)OCC)C(=O)OCC (stereo not given),survivor count,"T/C endpoint: mean survival time, dose: 25.0 mg/kg/injection, schedule: Q01DX009 (ip), vehicle: Klucel (hydroxypropylcellulose) (HPC)",6 of 6
same,survivor count,[13],6 of 6
same,survivor count,[14],4 of 6
same,survivor count,[15],2 of 6
same,survivor count,"T/C endpoint: mean survival time, dose: 400.0 mg/kg/injection, schedule: Q01DX009 (ip), vehicle: Klucel (hydroxypropylcellulose) (HPC)",2 of 6
CC(C)C(NC(=O)C(CCCN=C(N)N)NC(=O)C(N)CCCCN)C(N)=O (stereo not given),survivor count,"T/C endpoint: mean survival time, dose: 400.0 mg/kg/injection, schedule: Q01DX009 (ip), vehicle: water",0 of 6
